Assay results published in PMC10447549.

Sequences of proteins named here, by UniProt entry; tags and fusion partners are left off.
UniProt Q8R0K9: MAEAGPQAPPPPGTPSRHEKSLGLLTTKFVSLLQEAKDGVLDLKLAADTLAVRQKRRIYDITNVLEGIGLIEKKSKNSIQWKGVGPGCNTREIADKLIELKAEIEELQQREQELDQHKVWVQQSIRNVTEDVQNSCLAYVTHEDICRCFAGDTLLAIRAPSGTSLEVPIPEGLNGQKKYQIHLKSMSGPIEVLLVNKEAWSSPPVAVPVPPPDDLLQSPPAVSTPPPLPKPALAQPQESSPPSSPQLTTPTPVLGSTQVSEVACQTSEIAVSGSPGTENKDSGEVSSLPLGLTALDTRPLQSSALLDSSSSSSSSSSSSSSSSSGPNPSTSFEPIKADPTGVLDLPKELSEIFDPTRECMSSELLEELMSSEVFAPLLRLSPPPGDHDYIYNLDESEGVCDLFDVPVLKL
UniProt A2BH40: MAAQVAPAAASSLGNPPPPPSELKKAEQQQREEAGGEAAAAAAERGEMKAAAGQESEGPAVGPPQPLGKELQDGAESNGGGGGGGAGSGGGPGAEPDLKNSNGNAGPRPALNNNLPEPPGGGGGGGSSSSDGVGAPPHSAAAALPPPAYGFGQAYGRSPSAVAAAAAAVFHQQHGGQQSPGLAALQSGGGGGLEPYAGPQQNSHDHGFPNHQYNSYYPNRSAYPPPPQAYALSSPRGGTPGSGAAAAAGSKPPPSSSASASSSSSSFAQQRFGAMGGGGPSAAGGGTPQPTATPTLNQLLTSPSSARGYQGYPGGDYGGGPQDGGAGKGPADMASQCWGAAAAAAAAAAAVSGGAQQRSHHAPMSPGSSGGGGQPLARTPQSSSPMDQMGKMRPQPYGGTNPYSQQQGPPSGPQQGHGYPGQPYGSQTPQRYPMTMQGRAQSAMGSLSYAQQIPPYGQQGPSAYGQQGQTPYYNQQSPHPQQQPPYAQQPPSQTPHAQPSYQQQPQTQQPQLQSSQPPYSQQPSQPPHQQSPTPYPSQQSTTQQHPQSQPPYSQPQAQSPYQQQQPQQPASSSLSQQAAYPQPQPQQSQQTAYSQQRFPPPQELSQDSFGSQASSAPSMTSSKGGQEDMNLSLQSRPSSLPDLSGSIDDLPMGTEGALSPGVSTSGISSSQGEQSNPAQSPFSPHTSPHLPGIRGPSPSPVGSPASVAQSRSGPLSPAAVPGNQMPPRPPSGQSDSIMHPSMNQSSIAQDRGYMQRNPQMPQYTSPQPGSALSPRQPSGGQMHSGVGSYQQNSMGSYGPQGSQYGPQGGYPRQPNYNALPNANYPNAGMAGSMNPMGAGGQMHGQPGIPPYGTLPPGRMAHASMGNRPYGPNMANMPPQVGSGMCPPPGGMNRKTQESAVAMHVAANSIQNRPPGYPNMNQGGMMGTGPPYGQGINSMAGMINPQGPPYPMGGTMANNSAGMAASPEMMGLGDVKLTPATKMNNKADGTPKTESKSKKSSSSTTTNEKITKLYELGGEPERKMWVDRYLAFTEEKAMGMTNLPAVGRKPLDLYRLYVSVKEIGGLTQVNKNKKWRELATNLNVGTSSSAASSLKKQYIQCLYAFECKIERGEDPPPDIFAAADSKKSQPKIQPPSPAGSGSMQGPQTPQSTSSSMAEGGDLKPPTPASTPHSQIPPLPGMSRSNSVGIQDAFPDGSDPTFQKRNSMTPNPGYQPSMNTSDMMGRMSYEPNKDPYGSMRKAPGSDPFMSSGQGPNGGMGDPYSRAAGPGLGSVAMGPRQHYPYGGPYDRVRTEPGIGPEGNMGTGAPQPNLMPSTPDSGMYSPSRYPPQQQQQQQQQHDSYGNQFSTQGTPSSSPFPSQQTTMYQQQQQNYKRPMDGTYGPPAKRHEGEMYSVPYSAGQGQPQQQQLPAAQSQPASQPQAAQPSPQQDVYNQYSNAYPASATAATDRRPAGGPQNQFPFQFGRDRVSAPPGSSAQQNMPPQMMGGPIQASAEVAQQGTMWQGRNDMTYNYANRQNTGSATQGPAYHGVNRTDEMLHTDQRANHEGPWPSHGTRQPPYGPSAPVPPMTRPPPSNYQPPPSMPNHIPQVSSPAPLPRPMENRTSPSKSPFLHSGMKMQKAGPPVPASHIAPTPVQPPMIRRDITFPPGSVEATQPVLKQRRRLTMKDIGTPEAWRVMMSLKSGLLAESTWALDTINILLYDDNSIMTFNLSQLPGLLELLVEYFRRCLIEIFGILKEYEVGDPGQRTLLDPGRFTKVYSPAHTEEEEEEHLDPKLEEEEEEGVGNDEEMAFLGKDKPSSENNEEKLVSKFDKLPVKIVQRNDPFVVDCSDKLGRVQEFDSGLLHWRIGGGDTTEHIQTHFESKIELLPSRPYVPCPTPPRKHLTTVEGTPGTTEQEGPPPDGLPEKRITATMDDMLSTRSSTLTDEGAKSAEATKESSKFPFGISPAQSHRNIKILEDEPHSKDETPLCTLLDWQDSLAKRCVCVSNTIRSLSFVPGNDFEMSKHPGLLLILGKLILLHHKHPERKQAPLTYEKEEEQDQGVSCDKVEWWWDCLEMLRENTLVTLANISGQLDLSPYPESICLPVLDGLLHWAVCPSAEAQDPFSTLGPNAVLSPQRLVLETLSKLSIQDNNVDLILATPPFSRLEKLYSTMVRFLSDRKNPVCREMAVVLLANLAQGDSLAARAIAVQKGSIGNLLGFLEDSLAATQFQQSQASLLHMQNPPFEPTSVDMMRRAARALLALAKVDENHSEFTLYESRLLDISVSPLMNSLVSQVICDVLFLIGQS

Molecular target: transcription factor E2f4 (endogenous, mouse) (mouse (endogenous in p19/Nras)) (UniProt Q8R0K9)
Assay: affinity purification with mass spectrometry; IP of endogenous E2f4 (Proteintech 10923-1-AP) against isotype control IgG from TNT-150 lysates of Trim33-WT and Trim33-KO p19/Nras cells, LC-MS/MS, three independent reactions

binding: binds
Substance: Arid1a (endogenous, mouse) (from UniProt A2BH40 1-2283)

These are yes or no findings as the source states them, for the method shown. In cells and extracts the contact can be indirect. These calls come from enrichment with a bait or labelling near it, and not all partners need be listed.
